This is an account of results in the supplement of paper PMC10849652.

Amino acid sequences for entries named in this document (tags omitted). A change or cut given only in a name is not applied to a line headed by its entry.
UniProt Q92540: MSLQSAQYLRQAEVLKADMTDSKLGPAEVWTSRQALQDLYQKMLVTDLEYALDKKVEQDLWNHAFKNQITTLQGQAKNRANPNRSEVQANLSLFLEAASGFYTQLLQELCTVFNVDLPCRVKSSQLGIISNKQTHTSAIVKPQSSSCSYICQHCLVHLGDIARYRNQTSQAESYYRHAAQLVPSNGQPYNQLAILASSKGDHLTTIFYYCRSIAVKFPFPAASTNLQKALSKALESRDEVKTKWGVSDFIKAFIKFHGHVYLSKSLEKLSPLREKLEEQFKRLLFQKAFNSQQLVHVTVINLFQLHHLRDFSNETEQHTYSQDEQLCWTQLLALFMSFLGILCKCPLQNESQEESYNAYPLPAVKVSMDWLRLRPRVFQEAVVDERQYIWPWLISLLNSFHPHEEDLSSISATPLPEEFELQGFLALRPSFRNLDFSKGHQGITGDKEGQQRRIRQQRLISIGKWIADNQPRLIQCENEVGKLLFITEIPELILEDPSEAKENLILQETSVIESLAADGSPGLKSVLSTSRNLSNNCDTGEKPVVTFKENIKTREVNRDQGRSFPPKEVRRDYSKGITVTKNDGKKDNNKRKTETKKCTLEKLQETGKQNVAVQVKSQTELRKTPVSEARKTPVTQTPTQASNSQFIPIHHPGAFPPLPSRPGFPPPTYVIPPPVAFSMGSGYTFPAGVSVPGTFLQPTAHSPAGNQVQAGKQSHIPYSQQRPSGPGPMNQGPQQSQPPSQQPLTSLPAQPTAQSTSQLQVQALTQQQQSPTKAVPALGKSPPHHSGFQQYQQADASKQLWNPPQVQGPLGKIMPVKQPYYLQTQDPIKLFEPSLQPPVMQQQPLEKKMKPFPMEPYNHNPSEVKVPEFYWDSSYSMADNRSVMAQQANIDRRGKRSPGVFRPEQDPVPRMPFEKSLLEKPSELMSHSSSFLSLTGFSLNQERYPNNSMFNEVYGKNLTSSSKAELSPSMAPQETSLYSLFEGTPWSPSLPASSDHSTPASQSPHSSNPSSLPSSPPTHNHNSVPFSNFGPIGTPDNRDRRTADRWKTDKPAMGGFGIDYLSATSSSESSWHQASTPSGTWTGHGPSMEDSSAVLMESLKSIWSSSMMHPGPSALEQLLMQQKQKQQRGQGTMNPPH
UniProt P09234, whole entry, looked up: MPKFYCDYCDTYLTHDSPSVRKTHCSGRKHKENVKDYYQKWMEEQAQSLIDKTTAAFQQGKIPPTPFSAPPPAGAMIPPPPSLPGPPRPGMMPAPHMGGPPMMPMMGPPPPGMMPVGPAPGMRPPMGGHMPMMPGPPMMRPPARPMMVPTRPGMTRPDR
UniProt Q15036: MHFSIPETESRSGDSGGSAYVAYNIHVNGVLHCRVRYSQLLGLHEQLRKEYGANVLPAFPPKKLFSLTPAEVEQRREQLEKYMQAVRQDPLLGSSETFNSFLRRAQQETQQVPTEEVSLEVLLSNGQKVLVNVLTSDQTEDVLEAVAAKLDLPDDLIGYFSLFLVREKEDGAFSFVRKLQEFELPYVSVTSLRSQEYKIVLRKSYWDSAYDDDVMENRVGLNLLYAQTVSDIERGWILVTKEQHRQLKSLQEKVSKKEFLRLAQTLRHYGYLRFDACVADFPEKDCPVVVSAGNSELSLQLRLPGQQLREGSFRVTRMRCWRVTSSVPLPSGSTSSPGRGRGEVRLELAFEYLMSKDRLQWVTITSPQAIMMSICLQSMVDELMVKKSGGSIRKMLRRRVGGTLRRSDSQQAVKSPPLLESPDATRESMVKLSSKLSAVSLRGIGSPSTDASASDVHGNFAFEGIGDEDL
UniProt Q9NRG4: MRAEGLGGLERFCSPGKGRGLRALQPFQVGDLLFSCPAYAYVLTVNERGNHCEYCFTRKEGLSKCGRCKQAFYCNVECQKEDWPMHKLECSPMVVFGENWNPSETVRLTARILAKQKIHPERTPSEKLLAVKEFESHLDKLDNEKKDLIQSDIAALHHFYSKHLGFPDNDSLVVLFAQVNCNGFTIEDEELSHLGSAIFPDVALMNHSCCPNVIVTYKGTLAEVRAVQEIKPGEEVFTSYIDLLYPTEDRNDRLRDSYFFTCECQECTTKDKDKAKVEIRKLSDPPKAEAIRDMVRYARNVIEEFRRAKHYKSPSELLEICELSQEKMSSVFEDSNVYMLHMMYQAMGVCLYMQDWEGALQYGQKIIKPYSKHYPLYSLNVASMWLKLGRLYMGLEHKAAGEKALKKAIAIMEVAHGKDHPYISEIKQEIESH
UniProt O76070, whole entry, looked up: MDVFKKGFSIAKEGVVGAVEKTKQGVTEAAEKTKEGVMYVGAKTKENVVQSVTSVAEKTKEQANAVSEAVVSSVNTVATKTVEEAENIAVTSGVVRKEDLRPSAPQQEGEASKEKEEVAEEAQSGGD
UniProt P35712: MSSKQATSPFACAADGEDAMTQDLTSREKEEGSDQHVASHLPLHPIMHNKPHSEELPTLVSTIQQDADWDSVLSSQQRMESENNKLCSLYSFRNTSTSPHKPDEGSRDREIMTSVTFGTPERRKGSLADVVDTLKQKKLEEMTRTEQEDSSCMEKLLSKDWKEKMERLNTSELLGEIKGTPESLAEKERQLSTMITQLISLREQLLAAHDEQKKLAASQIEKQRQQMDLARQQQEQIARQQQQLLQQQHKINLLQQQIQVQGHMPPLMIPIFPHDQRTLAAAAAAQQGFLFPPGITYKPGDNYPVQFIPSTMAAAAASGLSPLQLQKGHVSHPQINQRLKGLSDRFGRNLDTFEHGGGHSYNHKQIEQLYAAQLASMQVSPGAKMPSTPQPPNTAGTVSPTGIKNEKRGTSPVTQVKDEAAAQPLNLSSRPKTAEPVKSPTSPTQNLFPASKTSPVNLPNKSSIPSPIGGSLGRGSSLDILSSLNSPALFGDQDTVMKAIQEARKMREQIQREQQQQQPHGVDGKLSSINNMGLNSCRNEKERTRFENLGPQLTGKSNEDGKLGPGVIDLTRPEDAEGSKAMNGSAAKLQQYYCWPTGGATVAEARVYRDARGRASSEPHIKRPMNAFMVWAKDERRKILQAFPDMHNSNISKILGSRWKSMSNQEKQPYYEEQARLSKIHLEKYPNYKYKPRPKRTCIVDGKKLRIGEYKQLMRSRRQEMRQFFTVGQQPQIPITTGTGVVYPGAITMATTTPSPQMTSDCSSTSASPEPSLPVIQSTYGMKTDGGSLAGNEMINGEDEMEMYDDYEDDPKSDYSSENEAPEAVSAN
UniProt Q6GMV2: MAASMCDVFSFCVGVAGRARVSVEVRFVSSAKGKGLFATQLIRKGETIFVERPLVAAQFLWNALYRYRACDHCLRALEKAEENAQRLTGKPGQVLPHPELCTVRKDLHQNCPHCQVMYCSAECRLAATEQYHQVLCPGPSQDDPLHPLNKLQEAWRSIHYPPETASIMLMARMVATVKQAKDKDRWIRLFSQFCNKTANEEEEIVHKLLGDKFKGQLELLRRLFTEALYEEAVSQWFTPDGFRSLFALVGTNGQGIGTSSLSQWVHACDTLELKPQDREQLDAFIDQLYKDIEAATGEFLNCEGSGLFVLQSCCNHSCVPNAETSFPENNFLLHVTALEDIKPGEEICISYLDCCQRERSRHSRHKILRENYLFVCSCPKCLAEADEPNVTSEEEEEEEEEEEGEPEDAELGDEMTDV
UniProt P62306, whole entry, looked up: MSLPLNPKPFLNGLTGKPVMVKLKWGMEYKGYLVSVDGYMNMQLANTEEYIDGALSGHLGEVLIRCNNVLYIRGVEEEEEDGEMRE
UniProt P08579, whole entry, looked up: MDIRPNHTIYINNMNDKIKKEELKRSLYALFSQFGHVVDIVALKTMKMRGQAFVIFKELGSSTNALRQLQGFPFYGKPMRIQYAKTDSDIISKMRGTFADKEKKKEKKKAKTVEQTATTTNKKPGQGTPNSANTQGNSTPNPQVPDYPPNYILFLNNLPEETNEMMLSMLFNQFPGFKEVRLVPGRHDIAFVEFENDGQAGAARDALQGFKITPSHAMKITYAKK
UniProt P55769: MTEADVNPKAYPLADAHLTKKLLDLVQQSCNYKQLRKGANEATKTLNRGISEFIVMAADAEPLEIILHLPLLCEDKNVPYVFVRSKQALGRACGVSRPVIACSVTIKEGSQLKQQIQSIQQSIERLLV
UniProt Q96DI7: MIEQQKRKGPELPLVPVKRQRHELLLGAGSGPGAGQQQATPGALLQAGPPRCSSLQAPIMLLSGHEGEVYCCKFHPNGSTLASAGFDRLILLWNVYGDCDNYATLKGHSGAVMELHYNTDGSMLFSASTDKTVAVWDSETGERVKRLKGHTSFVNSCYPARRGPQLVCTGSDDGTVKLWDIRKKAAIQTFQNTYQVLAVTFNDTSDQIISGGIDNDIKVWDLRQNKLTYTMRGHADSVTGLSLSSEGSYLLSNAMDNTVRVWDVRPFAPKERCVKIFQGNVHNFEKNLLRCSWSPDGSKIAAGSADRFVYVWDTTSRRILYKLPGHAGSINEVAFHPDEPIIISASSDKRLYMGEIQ
UniProt O94964: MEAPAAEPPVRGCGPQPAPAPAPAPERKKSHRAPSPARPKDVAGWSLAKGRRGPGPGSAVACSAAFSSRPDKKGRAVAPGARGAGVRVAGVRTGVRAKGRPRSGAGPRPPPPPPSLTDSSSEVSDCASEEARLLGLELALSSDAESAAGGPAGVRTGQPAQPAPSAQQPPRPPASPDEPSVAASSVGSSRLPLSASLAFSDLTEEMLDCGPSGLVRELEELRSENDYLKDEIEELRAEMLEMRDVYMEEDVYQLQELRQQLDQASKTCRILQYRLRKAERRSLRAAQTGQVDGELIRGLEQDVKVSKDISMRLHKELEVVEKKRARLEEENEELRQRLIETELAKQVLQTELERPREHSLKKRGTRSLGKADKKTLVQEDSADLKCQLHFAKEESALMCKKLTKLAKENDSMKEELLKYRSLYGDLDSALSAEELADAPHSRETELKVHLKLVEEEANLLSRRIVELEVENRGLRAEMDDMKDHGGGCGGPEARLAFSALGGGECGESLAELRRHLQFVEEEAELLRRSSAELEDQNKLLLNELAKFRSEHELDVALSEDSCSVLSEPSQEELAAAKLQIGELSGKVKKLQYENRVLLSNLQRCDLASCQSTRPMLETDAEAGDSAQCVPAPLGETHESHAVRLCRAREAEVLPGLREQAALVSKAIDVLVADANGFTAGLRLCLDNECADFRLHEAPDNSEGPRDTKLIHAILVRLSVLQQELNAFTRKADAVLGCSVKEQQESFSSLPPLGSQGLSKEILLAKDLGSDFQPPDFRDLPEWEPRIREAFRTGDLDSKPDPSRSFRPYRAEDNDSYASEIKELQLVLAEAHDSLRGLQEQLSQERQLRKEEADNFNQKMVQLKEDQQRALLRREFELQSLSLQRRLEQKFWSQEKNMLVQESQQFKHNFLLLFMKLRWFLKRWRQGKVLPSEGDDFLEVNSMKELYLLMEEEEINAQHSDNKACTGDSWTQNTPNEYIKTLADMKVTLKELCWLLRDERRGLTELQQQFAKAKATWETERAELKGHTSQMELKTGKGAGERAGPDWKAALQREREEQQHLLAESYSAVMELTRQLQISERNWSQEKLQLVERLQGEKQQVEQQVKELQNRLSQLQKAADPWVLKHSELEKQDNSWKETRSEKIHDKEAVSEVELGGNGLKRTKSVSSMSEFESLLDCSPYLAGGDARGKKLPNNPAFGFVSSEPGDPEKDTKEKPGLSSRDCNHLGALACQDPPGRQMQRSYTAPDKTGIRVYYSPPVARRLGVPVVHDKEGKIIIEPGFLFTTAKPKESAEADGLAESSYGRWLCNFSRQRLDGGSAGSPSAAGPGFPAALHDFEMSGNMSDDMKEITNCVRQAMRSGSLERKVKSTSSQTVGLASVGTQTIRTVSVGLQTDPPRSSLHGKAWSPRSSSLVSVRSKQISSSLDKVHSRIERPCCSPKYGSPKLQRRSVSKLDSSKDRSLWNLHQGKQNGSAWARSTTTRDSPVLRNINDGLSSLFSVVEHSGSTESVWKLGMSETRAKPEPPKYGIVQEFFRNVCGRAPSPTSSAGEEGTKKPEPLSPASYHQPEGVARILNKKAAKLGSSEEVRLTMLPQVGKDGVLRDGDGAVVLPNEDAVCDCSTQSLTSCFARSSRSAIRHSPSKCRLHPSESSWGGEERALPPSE
UniProt Q13596, whole entry, looked up: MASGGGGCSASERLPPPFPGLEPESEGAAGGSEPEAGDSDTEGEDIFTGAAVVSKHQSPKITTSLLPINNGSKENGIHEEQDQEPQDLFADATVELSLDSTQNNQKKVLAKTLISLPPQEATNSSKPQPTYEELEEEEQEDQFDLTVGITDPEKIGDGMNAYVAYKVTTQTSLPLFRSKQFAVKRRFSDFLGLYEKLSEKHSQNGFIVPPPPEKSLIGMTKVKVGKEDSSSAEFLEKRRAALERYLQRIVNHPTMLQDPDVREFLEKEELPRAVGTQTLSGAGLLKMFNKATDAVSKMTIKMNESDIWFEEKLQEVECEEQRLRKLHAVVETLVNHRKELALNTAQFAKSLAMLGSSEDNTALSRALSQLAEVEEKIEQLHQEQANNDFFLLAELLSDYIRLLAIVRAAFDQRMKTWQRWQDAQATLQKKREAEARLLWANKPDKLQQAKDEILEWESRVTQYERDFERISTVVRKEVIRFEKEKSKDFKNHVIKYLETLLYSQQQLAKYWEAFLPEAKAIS

Some of the results follow.

Compound in the first assay: O=C1NC(=O)C(c2cnc3ccccn23)=C1c1cn2c3c(cc(F)cc13)CN(C(=O)N1CCCCC1)CC2
The experiment in a line: log2 fold change, soluble protein after heating vs DMSO (PISA); higher = thermal stabilisation; K562 lysate, 10 uM; active = over 0.2 and 3.5 SD of the protein, either way, in both replicates (recomputed). The gist of the method: (§1)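 Values give the log-two fold change in thermal stability against solvent controls, from duplicates. Crude K562 extract at 1 mg/mL protein, made by dounce homogenisation in PBS pH 7.4 with 1 mM MgCl2, was treated with 10 μM compound for 30 min. After 3 min heating across 48°C-58°C, aliquots were pooled, adjusted to 0.5% NP-40 at 4°C and centrifuged at 21,000xg for 90 min. The supernatant was measured by TMTpro 16plex LC-MS/MS with channel sums equalised.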
In the case of SNTB2 (UniProt Q13425), the log2 fold change is inactive: 0.099. On to SMG7 (UniProt Q92540), for which the log2 fold change was inactive: -0.035. With SNRPC (UniProt P09234), the log2 fold change was inactive: 0.013. The same measure, in the same setting: as for SNX17 (UniProt Q15036), the figure is inactive: -0.048; as for SP1 (UniProt P08047), inactive: 0.081. With SNAP23 (UniProt O00161), the log2 fold change is inactive: -0.016. For SNX2 (UniProt O60749), the log2 fold change is inactive: 0.006. The same measure, in the same setting: as for SND1 (UniProt Q7KZF4), the figure is inactive: 0.013; as for SMYD2 (UniProt Q9NRG4), inactive: 0.03; as for SMARCAD1 isoform 2 (UniProt Q9H4L7), inactive: 0.014. On to SP100 isoform 4 (UniProt P23497), for which the log2 fold change is inactive: 0.01. Still for that read-out and setting: as for SMC3 (UniProt Q9UQE7), the figure is inactive: -0.017; as for SNX18 isoform 2 (UniProt Q96RF0), inactive: 0.051; as for SNCG (UniProt O76070), inactive: -0.007. The same measure, in the same setting: as for SMC4 (UniProt Q9NTJ3), the figure is inactive: -0.015.

Compound in the next assay: c1cn2cc(-c3ccc4cn[nH]c4c3)nc(Nc3ccc(N4CCOCC4)cc3)c2n1 [entospletinib]
The description is as above. In outline:
as §1
As to SOX6 (UniProt P35712), the log2 fold change is inactive: -0.017. Same read-out and setting: the figure for SMCR8 (UniProt Q8TEV9) is inactive: -0.092; for SMYD5 (UniProt Q6GMV2) it is inactive: 0.006; for SNRPA1 (UniProt P09661) it is inactive: 0.013.

For the target SMU1 (UniProt Q2TAY7), the log2 fold change was inactive: -0.005. In the case of SOCS2 (UniProt O14508), the log2 fold change was inactive: 0.008. As to SMARCA5 (UniProt O60264), the log2 fold change was inactive: -0.041.

On to SNRPF (UniProt P62306), for which the log2 fold change is inactive: -0.016.

On to SNRPB2 (UniProt P08579), for which the log2 fold change is inactive: -0.022.

Turning to SNU13 (UniProt P55769), the log2 fold change is inactive: 0.002. With SNRPN isoform 2 (UniProt P63162), the log2 fold change was inactive: 0.023. As for SPAG7 (UniProt O75391), the log2 fold change was inactive: 0. Consider SNAP29 (UniProt O95721), for which the log2 fold change is inactive: -0.021. On the same count and under the same terms, the figure for SMYD3 (UniProt Q9H7B4) is inactive: -0.008. For SNRNP40 (UniProt Q96DI7), the log2 fold change is inactive: 0.03. Consider SMTN isoform 6 (UniProt P53814), for which the log2 fold change is inactive: 0.013. With SMC1B isoform 3 (UniProt Q8NDV3), the log2 fold change is inactive: 0.004. As to SOD2 (UniProt P04179), the log2 fold change is inactive: 0.003. Still for that read-out and setting: the figure for SNRK (UniProt Q9NRH2) is inactive: -0.015; for SNX11 (UniProt Q9Y5W9) it is inactive: -0.004. In the case of SOGA1 isoform 2 (UniProt O94964), the log2 fold change is inactive: -0.013. Consider SNX1 (UniProt Q13596), for which the log2 fold change was inactive: 0.009. In the case of SMARCA4 (UniProt P51532), the log2 fold change is inactive: -0.008. For SNTB2 (UniProt Q13425), the log2 fold change is inactive: -0.044. On to SMG7 (UniProt Q92540), for which the log2 fold change is inactive: 0.054.

Consider SNRPC (UniProt P09234), for which the log2 fold change is inactive: -0.072. Consider SNX17 (UniProt Q15036), for which the log2 fold change is inactive: 0.008.

SP1 (UniProt P08047): the log2 fold change was inactive: -0.006. On to SNAP23 (UniProt O00161), for which the log2 fold change was inactive: 0.004. Still for that read-out and setting: as for SNX2 (UniProt O60749), the figure is inactive: 0.001; as for SND1 (UniProt Q7KZF4), inactive: 0.013; as for SMYD2 (UniProt Q9NRG4), inactive: 0.016. Consider SMARCAD1 isoform 2 (UniProt Q9H4L7), for which the log2 fold change is inactive: 0.013. For the target SP100 isoform 4 (UniProt P23497), the log2 fold change was inactive: -0.003. In the case of SMC3 (UniProt Q9UQE7), the log2 fold change is inactive: 0.012.

In the case of SNX18 isoform 2 (UniProt Q96RF0), the log2 fold change was inactive: -0.065. As to SNCG (UniProt O76070), the log2 fold change is inactive: 0.001. With SMC4 (UniProt Q9NTJ3), the log2 fold change was inactive: 0.009.
